# The entries are a selection whose mix differs from that of the whole data set.
# Protein sequences, listed by entry. Tags and fused reporters are not part of them. Lines headed by an entry give the natural chain unless they say otherwise; changes in a name come on top.
# UniProt Q6YN16: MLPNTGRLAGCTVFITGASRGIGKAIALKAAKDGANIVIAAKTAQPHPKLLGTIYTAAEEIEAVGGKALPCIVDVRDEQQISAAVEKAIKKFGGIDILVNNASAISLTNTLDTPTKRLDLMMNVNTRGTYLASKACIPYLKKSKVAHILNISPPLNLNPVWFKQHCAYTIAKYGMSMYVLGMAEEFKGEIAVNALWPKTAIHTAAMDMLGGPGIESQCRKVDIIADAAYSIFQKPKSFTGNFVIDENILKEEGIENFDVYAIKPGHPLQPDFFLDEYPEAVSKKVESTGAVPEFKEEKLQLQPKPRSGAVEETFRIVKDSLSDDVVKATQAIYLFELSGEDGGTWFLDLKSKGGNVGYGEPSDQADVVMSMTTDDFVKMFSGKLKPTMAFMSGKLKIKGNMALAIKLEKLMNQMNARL
# UniProt Q6P2E9: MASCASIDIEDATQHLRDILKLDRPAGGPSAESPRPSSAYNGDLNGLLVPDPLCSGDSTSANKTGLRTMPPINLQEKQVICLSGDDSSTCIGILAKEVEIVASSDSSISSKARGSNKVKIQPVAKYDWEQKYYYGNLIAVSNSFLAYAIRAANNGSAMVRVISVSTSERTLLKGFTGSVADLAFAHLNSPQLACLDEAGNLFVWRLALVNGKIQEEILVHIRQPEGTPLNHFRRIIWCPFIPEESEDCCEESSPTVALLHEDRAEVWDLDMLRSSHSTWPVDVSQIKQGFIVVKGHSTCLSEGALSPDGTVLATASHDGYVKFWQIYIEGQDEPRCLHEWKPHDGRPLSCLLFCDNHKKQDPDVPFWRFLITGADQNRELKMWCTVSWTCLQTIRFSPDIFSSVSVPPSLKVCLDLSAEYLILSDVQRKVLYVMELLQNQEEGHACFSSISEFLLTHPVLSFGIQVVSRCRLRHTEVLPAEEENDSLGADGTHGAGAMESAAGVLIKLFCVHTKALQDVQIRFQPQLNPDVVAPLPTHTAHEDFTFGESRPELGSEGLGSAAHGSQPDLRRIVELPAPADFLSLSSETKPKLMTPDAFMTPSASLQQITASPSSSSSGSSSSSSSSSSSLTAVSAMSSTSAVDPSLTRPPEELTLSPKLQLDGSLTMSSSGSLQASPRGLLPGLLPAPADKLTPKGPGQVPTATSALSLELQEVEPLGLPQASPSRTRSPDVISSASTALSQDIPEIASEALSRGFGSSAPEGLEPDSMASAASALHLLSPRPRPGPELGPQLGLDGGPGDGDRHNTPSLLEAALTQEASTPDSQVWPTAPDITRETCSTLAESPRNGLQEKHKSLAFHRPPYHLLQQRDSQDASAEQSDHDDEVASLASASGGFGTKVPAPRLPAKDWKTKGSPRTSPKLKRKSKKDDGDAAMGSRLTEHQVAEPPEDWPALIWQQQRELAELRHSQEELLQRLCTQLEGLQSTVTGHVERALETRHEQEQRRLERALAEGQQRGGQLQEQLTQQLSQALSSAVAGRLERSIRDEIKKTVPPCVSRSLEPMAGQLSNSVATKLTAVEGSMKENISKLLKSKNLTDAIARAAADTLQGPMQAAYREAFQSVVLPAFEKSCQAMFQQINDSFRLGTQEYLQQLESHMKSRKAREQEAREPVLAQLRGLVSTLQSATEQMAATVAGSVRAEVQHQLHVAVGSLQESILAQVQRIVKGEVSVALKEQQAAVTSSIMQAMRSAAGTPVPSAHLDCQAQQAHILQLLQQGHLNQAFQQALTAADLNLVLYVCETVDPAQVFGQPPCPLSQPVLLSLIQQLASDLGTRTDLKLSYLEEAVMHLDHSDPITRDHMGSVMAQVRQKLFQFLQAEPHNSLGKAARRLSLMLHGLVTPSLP
# UniProt Q6PJG6: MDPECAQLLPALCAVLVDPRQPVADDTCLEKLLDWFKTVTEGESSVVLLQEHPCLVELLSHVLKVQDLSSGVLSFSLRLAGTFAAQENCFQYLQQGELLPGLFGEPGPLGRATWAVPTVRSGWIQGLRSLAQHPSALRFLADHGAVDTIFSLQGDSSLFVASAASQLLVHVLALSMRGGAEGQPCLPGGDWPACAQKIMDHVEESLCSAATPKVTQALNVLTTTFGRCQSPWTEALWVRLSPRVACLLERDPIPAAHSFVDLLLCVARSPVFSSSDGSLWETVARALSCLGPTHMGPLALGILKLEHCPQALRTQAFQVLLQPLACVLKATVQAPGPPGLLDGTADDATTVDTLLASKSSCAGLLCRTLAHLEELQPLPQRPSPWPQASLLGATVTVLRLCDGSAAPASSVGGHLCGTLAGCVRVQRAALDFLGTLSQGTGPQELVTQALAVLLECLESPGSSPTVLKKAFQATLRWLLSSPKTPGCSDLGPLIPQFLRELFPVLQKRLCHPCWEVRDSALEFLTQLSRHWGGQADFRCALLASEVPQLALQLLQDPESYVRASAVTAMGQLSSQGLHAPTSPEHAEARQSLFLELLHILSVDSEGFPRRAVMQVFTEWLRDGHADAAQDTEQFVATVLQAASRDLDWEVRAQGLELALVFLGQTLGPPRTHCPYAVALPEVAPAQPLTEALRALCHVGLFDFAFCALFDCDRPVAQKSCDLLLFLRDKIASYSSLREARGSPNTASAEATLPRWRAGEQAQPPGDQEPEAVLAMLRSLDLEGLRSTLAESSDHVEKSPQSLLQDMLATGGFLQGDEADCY
# UniProt Q6PL18: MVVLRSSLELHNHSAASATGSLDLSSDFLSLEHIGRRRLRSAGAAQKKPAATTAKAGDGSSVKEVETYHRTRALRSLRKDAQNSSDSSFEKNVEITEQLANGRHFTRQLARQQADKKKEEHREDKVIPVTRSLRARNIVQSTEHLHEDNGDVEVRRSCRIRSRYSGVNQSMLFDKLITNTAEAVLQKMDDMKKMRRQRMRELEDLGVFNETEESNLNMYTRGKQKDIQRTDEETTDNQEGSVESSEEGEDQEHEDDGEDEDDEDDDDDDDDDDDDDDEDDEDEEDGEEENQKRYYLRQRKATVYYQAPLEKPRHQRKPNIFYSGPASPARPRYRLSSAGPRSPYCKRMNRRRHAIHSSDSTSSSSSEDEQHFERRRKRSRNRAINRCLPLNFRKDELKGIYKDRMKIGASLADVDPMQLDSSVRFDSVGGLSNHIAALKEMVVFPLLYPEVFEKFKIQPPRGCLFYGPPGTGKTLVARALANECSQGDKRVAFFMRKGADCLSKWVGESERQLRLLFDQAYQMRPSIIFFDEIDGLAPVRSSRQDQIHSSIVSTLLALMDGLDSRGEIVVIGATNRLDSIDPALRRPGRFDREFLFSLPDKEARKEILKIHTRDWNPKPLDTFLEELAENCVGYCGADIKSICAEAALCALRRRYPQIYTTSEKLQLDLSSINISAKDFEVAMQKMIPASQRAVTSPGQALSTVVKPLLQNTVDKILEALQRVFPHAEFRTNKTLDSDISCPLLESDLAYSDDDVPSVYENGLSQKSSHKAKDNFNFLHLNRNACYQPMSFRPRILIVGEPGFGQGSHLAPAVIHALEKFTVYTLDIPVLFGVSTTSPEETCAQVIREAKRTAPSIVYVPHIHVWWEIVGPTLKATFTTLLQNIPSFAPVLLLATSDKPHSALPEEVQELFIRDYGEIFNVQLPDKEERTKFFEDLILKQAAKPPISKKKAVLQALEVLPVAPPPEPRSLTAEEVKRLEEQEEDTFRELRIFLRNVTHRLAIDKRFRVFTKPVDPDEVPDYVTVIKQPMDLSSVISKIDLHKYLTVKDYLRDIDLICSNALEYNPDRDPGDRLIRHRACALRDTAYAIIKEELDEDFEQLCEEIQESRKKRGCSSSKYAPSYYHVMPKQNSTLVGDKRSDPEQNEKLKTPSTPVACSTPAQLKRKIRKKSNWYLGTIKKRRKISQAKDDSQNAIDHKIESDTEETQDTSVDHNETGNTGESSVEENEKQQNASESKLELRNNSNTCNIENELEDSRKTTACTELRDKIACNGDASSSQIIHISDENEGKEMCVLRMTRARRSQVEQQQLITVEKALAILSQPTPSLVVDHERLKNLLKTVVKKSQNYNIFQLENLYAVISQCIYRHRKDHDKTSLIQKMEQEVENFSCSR
# UniProt Q6PCB5: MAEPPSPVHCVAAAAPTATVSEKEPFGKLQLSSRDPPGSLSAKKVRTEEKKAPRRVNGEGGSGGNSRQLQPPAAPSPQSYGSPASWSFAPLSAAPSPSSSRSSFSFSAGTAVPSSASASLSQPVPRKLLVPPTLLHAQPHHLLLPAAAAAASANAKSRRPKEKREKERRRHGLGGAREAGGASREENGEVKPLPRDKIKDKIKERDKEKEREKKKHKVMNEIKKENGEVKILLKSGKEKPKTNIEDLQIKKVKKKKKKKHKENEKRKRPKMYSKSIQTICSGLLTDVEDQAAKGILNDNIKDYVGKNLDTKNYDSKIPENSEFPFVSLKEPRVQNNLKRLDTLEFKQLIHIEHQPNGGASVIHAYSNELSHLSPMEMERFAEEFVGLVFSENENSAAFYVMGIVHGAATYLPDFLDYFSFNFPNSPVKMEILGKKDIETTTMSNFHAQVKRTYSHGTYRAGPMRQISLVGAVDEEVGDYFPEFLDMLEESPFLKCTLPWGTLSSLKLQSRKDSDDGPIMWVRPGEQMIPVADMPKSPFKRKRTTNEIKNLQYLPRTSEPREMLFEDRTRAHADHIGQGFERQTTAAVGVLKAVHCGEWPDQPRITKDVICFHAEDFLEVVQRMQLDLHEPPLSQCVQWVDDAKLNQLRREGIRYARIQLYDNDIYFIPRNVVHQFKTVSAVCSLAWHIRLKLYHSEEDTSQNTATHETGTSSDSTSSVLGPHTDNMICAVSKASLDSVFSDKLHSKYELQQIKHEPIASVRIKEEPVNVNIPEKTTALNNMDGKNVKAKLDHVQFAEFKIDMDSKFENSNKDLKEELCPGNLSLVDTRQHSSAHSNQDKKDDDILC
# UniProt Q6ZSJ8: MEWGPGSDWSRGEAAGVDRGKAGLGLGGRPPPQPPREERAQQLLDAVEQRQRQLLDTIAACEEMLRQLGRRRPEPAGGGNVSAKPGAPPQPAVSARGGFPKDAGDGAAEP
# UniProt Q63ZY3: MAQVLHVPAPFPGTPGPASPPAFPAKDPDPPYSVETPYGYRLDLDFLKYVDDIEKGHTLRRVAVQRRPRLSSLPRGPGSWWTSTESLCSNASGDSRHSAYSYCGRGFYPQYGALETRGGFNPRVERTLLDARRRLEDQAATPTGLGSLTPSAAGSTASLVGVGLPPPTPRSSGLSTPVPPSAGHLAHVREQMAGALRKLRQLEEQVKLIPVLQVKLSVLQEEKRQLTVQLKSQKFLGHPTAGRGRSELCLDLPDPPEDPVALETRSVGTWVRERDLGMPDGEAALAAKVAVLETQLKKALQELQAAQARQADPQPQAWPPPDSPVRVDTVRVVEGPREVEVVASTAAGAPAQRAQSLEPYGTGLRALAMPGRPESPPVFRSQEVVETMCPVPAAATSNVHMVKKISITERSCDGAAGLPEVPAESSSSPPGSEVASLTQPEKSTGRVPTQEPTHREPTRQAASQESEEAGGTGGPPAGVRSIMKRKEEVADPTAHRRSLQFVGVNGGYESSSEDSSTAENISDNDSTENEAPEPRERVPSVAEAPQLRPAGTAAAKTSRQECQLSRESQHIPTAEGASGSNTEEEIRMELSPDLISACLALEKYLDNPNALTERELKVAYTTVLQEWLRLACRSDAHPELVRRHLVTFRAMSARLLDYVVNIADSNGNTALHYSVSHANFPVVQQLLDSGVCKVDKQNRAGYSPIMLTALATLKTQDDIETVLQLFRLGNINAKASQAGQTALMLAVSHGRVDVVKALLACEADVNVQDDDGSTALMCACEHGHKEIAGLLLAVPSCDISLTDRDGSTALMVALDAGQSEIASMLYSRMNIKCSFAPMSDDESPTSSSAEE
# UniProt Q6PIY7: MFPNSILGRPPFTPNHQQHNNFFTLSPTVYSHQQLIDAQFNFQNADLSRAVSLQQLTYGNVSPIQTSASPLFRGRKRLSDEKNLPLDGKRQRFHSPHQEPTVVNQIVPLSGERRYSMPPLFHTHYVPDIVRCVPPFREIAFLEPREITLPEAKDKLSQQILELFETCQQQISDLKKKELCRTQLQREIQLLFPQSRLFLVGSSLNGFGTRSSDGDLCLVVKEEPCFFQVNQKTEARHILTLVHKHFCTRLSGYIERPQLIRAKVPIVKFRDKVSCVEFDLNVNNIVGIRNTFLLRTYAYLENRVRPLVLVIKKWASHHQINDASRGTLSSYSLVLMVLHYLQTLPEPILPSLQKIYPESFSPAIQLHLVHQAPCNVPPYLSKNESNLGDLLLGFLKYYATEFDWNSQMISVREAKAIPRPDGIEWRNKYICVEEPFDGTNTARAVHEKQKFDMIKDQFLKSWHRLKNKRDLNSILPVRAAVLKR
# Compound: COC(=O)C#Cc1ccccc1 [methyl 3-phenylpropiolate]
# Test: log2 ratio of iodoacetamide-alkyne labeling of the cysteine site, DMSO over compound (competition); higher = stronger covalent engagement of the cysteine by the compound, active = 1 or more
# Details: 500 µM; treatment time 1 h; system: HEK293T cell lysate
# Outline: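 Three replicates, each with duplicate channels, were prepared from HEK293T lysate (2 mg/mL) treated with vehicle or electrophile at 500 µM for 1 h at ambient temperature. Iodoacetamide alkyne was then applied for 1 h, and samples were clicked to sCIP-TMT reagents, pooled, trypsin-digested overnight at 37 °C, enriched on streptavidin, acid-eluted and analysed on Orbitrap Eclipse LC-MS/MS with FAIMS, with FragPipe quantification. The log2 competition ratio per cysteine is the mean control-channel divided by the mean compound-channel reporter intensity. Cysteines quantified in only one replicate were left out.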
row,Target,log2 ratio of iodoacetamide-alkyne labeling
1,UniProt Q5JSZ5_C1482,inactive: 0.275
2,SPTY2D1 C433 (UniProt Q68D10),inactive: 0.206
3,CNNM4 C736 (UniProt Q6P4Q7),inactive: 0.328
4,MIA3 C1513 (UniProt Q5JRA6),inactive: 0.31
5,RNF123 C1180 (UniProt Q5XPI4),inactive: 0.428
6,HSDL2 C71 (UniProt Q6YN16),inactive: 0.188
7,EDC4 C54 (UniProt Q6P2E9),inactive: 0.498
8,UniProt Q6PJG6_C228,active: 1.06
9,ATAD2 C463 (UniProt Q6PL18),inactive: 0.354
10,RIF1 C2169 (UniProt Q5UIP0),inactive: 0.479
11,RSBN1L C818 (UniProt Q6PCB5),inactive: 0.453
12,SASS6 C525 (UniProt Q6UVJ0),inactive: 0.191
13,TBC1D9B C1079 (UniProt Q66K14),inactive: 0.224
14,C1orf122 C61 (UniProt Q6ZSJ8),inactive: 0.107
15,RARS2 C74 (UniProt Q5T160),inactive: 0.222
16,UniProt Q69YN4_C353,inactive: 0.312
17,KANK2 C249 (UniProt Q63ZY3),inactive: 0.559
18,UniProt Q6PIY7_C167,inactive: -0.0469
19,LARP1 C953 (UniProt Q6PKG0),inactive: -0.0257
20,EDC4 C81 (UniProt Q6P2E9),inactive: 0.664
21,RSBN1L C10 (UniProt Q6PCB5),inactive: 0.291
22,MAP1S C841 (UniProt Q66K74),inactive: 0.464

# Some values from above.
# Entry of EDC4 C54 (UniProt Q6P2E9) under log2 ratio of iodoacetamide-alkyne labeling: inactive: 0.498
# Entry of RSBN1L C10 (UniProt Q6PCB5) under log2 ratio of iodoacetamide-alkyne labeling: inactive: 0.291

# — the supplement of paper PMC11006884
